Consider 2 substances from US8435548B2 (Bio-FD&C Co., Ltd, priority 2009, dated 2013).

The series in a line: general procedure: Fmoc solid-phase peptide synthesis; HOBt/DCC. To be noted: whole synthesis.

On to “Digalloyl-Tetrapeptide(Lysyl-Tyrosyl-Histidyl-Tyrosine) (KYHY)”, for which the isolated yield amounted to 71%.
“Galloyl-Decapeptide(Tyrosyl-Glycyl-Glycyl-Phenylalanyl-Leucyl-Arginyl-Lysyl-Tyrosyl-Prolyl-Lysine) (SEQ ID No: 5) (YGGFLRKYPK)”: the isolated yield amounted to 59%.
